Test [1] addresses IQD2_(Cterm) fused to the Gal4 DNA-binding domain (Arabidopsis thaliana). Put plainly: two-hybrid.
Test [2] concerns the target IQD2_(Nterm) fused to the Gal4 DNA-binding domain (Arabidopsis thaliana). In words: two-hybrid.
For test [3], the target named is IQD2_(central) fused to the Gal4 DNA-binding domain (Arabidopsis thaliana). Put plainly: two-hybrid.
For test [4], the target named is HS-IQD2_(ΔNterm) (Arabidopsis thaliana). In words: pull-down.

Among the data in publication doi:10.1101/2024.10.01.615909 (bioRxiv, 2024) are binding values, retold here.

No constants are given. Whether binding was seen depends on the method and setting. For some of these results: A result given as binding can be weak or reduced; the word gives no strength. Sequences can lack the tags named with a protein. For some of these results: In cells and extracts the contact can be indirect.

B1: KLCR1 fused to the Gal4 activation domain (protein, UniProt O81629 1-609)
chain: MPAMPGLVSVKTPSDTPPLRVAVPDTQPLSNPPRTPMKKTPSSTPSRSKPSPNRSTGKKDSPTVSSSTAAVIDVDDPSLDNPDLGPFLLKLARDAIASGEGPNKALDYAIRATKSFERCCAAVAPPIPGGSDGGPVLDLAMSLHVLAAIYCSLGRFDEAVPPLERAIQVPDPTRGPDHSLAAFSGHMQLGDTLSMLGQIDRSIACYEEGLKIQIQTLGDTDPRVGETCRYLAEAYVQAMQFNKAEELCKKTLEIHRAHSEPASLEEAADRRLMAIICEAKGDYENALEHLVLASMAMIASGQESEVASIDVSIGNIYMSLCRFDEAVFSYQKALTVFKASKGETHPTVASVFVRLAELYHRTGKLRESKSYCENALRIYNKPVPGTTVEEIAGGLTEISAIYESVDEPEEALKLLQKSMKLLEDKPGQQSAIAGLEARMGVMYYTVGRYEDARNAFESAVTKLRAAGEKSAFFGVVLNQMGLACVQLFKIDEAGELFEEARGILEQERGPCDQDTLGVYSNLAATYDAMGRIEDAIEILEQVLKLREEKLGTANPDFEDEKKRLAELLKEAGRSRNYKAKSLQNLIDPNARPPKKESSAKKWPSLGFKF
For B1, the binding entry in test [1] was “no binding”; in test [2] it was “no binding”; in test [3] it was “binds”.

B2: GST-KLCR1 (protein, UniProt O81629 1-609)
chain: B1 chain
Take B2: the binding entry in test [4] was “binds”.
